Reference: publication PMC11193767
These are yes or no findings as the source states them, for the method shown. In cells and extracts the contact can be indirect. A yes stands for co-enrichment or nearness to the bait. Other partners may have been found.

The chains behind the UniProt entries cited, without tags or fusion partners. Where a name states a change or a piece, a line headed by the entry shows the natural chain unless it says otherwise. A line that says so, or that is headed by a name, gives the form on record, which may keep a tag or linker. Residues count along the entry.
UniProt Q8IWT6: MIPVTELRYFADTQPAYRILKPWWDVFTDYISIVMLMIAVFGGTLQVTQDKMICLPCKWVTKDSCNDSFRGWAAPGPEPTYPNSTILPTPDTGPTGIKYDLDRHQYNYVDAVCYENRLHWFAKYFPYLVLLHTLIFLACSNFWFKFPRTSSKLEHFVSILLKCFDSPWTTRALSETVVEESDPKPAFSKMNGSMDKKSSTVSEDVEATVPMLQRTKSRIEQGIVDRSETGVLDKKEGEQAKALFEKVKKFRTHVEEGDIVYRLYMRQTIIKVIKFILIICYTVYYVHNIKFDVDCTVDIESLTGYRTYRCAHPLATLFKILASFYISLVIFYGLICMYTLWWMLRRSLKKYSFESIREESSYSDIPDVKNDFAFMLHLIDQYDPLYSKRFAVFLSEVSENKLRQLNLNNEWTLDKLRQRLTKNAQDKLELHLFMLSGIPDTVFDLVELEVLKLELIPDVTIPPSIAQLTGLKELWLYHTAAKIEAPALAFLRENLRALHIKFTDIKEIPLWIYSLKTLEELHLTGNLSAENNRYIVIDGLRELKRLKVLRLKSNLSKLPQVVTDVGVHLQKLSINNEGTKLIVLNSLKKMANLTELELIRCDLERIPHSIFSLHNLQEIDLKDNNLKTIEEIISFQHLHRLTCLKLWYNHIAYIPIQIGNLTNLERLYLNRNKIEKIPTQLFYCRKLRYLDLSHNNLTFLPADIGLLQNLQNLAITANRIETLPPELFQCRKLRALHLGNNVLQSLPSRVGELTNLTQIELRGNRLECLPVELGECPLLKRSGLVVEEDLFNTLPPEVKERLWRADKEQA
Rap guanine nucleotide exchange factor 6 (Q8TEU7-4, form named): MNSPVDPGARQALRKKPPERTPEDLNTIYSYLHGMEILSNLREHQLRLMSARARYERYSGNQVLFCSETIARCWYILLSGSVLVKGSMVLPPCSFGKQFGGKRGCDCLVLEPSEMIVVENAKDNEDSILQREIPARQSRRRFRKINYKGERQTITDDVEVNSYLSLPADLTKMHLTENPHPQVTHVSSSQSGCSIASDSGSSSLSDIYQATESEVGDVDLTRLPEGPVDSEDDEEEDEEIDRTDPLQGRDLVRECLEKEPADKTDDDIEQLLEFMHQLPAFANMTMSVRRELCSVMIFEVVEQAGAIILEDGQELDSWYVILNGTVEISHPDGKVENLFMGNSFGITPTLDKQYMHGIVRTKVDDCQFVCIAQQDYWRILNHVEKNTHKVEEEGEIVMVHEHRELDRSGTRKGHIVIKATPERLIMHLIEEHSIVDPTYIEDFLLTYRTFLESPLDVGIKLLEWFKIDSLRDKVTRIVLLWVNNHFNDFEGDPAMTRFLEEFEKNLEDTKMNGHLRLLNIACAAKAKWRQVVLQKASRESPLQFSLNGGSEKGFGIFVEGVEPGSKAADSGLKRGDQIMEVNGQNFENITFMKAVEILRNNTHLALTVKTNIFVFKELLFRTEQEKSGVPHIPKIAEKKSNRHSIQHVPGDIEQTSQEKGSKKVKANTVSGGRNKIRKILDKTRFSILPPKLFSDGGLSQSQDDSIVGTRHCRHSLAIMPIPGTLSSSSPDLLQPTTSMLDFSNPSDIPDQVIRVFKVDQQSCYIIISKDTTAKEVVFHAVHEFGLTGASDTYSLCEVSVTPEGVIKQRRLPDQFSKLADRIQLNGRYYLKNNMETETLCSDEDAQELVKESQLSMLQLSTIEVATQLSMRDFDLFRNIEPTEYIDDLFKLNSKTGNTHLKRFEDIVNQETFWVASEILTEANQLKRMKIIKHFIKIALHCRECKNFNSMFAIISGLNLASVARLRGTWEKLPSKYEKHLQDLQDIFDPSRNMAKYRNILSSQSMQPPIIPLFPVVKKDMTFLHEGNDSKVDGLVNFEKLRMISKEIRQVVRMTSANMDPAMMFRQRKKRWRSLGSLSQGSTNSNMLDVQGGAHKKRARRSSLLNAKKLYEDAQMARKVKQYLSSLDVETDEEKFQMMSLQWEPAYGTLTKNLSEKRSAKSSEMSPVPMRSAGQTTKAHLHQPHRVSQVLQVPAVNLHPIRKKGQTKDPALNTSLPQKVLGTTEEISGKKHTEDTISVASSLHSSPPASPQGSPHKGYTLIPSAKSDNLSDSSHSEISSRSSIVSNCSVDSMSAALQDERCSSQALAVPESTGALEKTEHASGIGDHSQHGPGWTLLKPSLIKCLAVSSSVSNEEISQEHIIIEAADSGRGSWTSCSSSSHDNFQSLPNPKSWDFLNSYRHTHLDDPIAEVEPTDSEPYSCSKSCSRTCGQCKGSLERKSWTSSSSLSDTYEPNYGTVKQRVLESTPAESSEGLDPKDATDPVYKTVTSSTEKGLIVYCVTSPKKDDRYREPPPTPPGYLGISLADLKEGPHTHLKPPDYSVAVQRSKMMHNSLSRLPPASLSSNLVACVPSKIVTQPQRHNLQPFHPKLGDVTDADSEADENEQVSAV
UniProt Q9H792: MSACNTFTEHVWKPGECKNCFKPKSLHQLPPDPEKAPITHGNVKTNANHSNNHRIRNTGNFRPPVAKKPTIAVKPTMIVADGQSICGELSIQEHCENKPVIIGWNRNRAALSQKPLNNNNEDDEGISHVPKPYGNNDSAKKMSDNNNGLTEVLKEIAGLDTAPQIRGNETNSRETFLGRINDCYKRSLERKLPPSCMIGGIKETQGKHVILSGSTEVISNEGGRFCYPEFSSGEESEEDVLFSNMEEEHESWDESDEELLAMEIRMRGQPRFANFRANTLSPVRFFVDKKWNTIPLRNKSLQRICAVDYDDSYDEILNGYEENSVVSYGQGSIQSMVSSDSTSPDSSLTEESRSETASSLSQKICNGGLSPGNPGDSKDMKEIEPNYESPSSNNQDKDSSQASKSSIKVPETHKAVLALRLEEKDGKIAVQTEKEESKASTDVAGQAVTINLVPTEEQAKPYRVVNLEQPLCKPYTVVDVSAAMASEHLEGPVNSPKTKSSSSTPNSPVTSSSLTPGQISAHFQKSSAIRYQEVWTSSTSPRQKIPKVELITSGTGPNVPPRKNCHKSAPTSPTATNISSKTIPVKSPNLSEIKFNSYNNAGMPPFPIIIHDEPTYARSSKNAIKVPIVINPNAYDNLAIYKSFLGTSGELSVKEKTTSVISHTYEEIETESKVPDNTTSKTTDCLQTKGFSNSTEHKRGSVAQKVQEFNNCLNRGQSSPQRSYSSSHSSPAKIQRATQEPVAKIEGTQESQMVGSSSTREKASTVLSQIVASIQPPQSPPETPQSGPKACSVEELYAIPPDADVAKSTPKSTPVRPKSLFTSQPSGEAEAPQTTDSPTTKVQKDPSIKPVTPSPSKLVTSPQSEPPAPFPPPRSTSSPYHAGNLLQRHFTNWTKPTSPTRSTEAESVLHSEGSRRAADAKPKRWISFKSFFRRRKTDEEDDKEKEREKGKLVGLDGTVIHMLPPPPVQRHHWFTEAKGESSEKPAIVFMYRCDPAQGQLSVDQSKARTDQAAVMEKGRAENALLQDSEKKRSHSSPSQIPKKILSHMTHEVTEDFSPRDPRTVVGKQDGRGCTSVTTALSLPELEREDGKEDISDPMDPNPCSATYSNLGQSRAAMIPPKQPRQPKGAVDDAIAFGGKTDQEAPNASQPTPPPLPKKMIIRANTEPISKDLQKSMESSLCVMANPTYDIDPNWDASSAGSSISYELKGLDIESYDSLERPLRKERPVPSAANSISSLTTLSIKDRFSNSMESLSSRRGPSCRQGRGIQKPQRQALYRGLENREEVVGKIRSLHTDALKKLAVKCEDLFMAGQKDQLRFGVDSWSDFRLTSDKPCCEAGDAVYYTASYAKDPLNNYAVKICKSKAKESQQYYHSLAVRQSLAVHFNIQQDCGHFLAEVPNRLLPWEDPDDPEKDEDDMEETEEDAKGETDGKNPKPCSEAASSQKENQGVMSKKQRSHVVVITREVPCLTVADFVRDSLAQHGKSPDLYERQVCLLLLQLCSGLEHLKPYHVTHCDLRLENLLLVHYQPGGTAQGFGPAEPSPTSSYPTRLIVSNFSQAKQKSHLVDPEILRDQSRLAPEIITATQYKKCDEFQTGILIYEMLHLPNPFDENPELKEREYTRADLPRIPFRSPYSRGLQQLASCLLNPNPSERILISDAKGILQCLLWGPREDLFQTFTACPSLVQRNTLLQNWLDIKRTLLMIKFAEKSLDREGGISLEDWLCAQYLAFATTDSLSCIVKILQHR
UniProt P17302: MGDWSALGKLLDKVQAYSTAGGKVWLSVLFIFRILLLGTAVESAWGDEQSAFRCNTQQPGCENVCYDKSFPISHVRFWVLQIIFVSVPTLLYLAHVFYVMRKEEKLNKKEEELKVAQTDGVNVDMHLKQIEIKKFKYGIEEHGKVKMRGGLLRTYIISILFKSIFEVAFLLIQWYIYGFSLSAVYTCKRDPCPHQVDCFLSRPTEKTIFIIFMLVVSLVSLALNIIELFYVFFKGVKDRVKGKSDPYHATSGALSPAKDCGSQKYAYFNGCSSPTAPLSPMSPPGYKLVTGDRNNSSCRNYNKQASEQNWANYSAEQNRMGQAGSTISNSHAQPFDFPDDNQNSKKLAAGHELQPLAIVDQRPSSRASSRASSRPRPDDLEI
UniProt Q9H3P7: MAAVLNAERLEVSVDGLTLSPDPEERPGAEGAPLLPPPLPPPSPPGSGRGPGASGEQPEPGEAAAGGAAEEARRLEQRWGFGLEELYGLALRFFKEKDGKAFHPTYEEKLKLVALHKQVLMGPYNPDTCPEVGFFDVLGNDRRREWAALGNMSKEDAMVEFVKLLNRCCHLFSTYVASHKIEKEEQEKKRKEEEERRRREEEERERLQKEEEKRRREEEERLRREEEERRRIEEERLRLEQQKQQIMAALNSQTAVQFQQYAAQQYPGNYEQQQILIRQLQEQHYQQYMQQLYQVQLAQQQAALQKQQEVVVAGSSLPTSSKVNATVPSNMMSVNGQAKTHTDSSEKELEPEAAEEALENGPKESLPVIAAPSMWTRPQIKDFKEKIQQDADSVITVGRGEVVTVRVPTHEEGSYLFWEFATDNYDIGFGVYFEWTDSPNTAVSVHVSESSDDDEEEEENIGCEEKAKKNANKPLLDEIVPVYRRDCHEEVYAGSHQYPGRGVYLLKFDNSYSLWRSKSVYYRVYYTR
UniProt Q92692, residues 32-538: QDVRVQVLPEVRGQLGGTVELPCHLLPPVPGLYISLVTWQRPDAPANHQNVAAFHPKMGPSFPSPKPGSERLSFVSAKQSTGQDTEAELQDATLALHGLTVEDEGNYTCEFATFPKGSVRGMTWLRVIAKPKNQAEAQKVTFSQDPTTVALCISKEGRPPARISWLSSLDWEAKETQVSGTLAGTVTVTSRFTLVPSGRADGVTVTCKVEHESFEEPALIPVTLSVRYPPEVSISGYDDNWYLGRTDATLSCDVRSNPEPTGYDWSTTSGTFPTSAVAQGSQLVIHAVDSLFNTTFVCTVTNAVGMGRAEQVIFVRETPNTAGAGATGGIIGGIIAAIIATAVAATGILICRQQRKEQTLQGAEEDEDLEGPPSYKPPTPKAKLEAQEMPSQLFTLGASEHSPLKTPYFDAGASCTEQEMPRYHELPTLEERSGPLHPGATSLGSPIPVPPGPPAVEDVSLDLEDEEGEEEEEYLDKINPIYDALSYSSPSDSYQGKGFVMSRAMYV
UniProt Q13586, residues 23-685: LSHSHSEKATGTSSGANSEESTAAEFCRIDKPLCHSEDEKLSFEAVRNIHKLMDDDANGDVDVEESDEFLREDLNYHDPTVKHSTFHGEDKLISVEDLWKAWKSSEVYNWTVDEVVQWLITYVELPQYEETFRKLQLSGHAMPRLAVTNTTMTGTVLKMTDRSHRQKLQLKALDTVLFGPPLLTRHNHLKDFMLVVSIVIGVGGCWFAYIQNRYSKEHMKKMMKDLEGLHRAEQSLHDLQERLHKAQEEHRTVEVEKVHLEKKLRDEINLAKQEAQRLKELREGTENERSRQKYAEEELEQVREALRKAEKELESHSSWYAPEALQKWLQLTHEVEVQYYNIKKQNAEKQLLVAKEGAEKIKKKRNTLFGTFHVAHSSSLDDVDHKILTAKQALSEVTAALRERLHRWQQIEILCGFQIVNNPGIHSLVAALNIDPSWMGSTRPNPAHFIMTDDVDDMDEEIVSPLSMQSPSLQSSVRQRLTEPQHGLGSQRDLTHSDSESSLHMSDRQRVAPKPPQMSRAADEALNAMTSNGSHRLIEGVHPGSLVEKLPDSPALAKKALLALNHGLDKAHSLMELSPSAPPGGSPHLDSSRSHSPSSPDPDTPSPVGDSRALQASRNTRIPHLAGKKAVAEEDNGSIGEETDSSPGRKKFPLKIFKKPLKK

Target: LRRC8A-BirA*-HA fusion protein (human) (UniProt Q8IWT6)
Assay: proximity labelling; BioID: HEK293 cells stably expressing LRRC8A-BirA*-HA (two clones), 50 uM biotin 24 h, RIPA lysis, streptavidin bead pull-down of biotinylated proteins, TMT labelling and LC-MS/MS; hits: FDR <= 0.05 and fold change >= 2 against the no-biotin control

Row | Substance | binding
1 | Band 4.1-like protein 3 (from UniProt Q9Y2J2-1 1-1087) | binds
2 | Protein NDRG1 (from UniProt Q92597-1 1-394) | binds
3 | Unconventional myosin-VI (from UniProt Q9UM54-1 1-1285) | binds
4 | Sorting nexin-1 (from UniProt Q13596-3 1-557) | binds
5 | Rap guanine nucleotide exchange factor 6 (from UniProt Q8TEU7-4 1-1609) | binds
6 | Pseudopodium-enriched atypical kinase 1 (from UniProt Q9H792 1-1746) | binds
7 | Gap junction alpha-1 protein (from UniProt P17302 1-382) | binds
8 | F-BAR domain only protein 2 (from UniProt Q0JRZ9-1 1-810) | binds
9 | Synaptosomal-associated protein 23 (from UniProt O00161-1 1-211) | binds
10 | Utrophin (from UniProt P46939-1 1-3433) | binds
11 | Plasma membrane calcium-transporting ATPase 1 (from UniProt P20020-3 1-1220) | binds
12 | Vesicle-associated membrane protein-associated protein B/C (from UniProt O95292-1 1-243) | binds
13 | Kinase D-interacting substrate of 220 kDa (from UniProt Q9ULH0-1 1-1771) | binds
14 | Beta-adducin (from UniProt P35612-1 1-726) | binds
15 | 4F2 cell-surface antigen heavy chain (from UniProt P08195-5 1-631) | binds
16 | Microtubule-actin cross-linking factor 1, isoforms 1/2/3/5 (from UniProt Q9UPN3-2 1-5430) | binds
17 | Spectrin alpha chain, non-erythrocytic 1 (from UniProt Q13813-2 1-2477) | binds
18 | Serine/threonine-protein kinase N2 (from UniProt Q16513-1 1-984) | binds
19 | Protein scribble homolog (from UniProt Q14160-3 1-1655) | binds
20 | Afadin (from UniProt P55196-3 1-1743) | binds
21 | Fermitin family homolog 2 (from UniProt Q96AC1-3 1-687) | binds
22 | Tyrosine-protein phosphatase non-receptor type 13 (from UniProt Q12923-4 1-2490) | binds
23 | RuvB-like 1 (from UniProt Q9Y265-1 1-456) | binds
24 | Rapamycin-insensitive companion of mTOR (from UniProt Q6R327-3 1-1732) | binds
25 | Zinc finger FYVE domain-containing protein 16 (from UniProt Q7Z3T8-1 1-1539) | binds

Row | Substance | binding
26 | Band 4.1-like protein 2 (from UniProt O43491-1 1-1005) | binds
27 | Multidrug resistance-associated protein 5 (from UniProt O15440-1 1-1437) | binds
28 | Fatty aldehyde dehydrogenase (from UniProt P51648-2 1-508) | binds
29 | EZR, a member of the ERM protein family (from UniProt P15311 1-586) | binds
30 | Cation-independent mannose-6-phosphate receptor (from UniProt P11717 41-2491) | binds
31 | Girdin (from UniProt Q3V6T2-3 1-1870) | binds
32 | Golgi resident protein GCP60 (from UniProt Q9H3P7 1-528) | binds
33 | Zinc finger CCCH-type antiviral protein 1 (from UniProt Q7Z2W4-1 1-902) | binds
34 | Delta14-sterol reductase (lamin-B receptor) (from UniProt Q14739 1-615) | binds
35 | Nectin-2 (from UniProt Q92692-1 32-538) | binds
36 | Transforming acidic coiled-coil-containing protein 1 (from UniProt O75410-1 1-805) | binds
37 | Torsin-1A-interacting protein 1 (from UniProt Q5JTV8-3 1-584) | binds
38 | Rho GTPase-activating protein 21 (from UniProt Q5T5U3-1 1-1958) | binds
39 | Liprin-beta-1 (from UniProt Q86W92-1 1-1011) | binds
40 | Serine/threonine-protein kinase VRK2 (from UniProt Q86Y07-1 1-508) | binds
41 | Serine/threonine-protein kinase PAK 4 (from UniProt O96013-1 1-591) | binds
42 | Palmitoyltransferase ZDHHC5 (from UniProt Q9C0B5-1 1-715) | binds
43 | Desmoglein-2 (from UniProt Q14126 50-1118) | binds
44 | Neuroblast differentiation-associated protein AHNAK (from UniProt Q09666-1 1-5890) | binds
45 | Golgin subfamily B member 1 (from UniProt Q14789-2 1-3269) | binds
46 | Stromal interaction molecule 1 (from UniProt Q13586 23-685) | binds
47 | Protein 4.1 (from UniProt P11171-1 1-864) | binds
48 | Lipopolysaccharide-responsive and beige-like anchor protein (from UniProt P50851-1 1-2863) | binds
49 | Tyrosine-protein kinase transmembrane receptor ROR2 (from UniProt Q01974 34-943) | binds
50 | Leucine-rich repeat-containing protein 7 (from UniProt Q96NW7 1-1575) | binds
